Assay [1] concerns the target T1, CSRNP3-Flag (UniProt Q8WYN3).
T1 sequence: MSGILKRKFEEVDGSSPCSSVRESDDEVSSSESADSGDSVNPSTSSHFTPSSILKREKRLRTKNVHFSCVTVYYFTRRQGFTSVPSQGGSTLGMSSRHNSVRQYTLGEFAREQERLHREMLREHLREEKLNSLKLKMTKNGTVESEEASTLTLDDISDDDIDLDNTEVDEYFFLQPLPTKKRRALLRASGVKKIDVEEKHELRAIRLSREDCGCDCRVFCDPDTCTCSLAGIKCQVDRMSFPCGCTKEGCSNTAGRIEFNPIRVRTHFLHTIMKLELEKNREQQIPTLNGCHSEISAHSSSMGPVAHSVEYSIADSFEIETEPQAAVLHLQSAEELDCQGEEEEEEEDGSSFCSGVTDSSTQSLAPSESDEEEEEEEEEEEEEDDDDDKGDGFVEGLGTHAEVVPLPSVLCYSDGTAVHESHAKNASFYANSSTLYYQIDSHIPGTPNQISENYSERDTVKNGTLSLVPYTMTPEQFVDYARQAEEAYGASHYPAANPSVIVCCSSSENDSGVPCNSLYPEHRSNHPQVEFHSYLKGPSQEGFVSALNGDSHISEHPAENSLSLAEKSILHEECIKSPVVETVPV
As to the kind of experiment: co-IP; semi-endogenous: IP with anti-Flag in PC-9 cells overexpressing CSRNP3-Flag or CSRNP3mut-Flag, endogenous PP1α.

The target in assay [2] is serine/threonine protein phosphatase 1 catalytic subunit α (PP1α), endogenous (human (endogenous in PC-9 and HCC827)). As to the kind of experiment: proximity ligation; PLA of endogenous CSRNP3 and PP1α in cells.
Assay [3] shares this target. Put plainly: co-IP; endogenous proteins, IP with anti-PP1α in PC-9 or HCC827 cells cultured with rCSF2 (100 ng/mL).

These are yes or no findings as the source states them, for the method shown. In cells and extracts the contact can be indirect. Binding can be weak; no strength is given. For part of these data: Where a sequence is shown, tags or fusion partners need not be part of it.

Turning to “serine/threonine protein phosphatase 1 catalytic subunit α (PP1α), endogenous (human (endogenous in PC-9 and HCC827)) (enzyme)”, the binding entry in assay [1] is “binds”.

B1: cysteine/serine-rich nuclear protein 3 (CSRNP3), endogenous (protein, UniProt Q8WYN3 1-585)
chain: T1 sequence
On to B1, for which the binding entry in assay [2] and in assay [3] was “binds” each time.

For the origin of these results see article PMC11260172.
